{
  "source": "PubChem BioAssay AID1347076",
  "about": "(National Center for Advancing Translational Sciences (NCATS), 2019)",
  "note": "Several values for one entry are separate records, joined by “and”; a condition that tells them apart may be missing. Equal entries are not always repeated. About 13,000 (3.2%) of roughly 400,000 compounds were called active. Inconclusive means that the source gave no clear call. Such entries were picked first, then a sample of the others. Calls follow the shape of the dose curve; as a rule, active = well fitted cell-killing curve with a large enough effect; inconclusive = small, poorly fitted or top-dose-only effect, or effect the other way; inactive = flat fitted curve, though single readings scatter. A potency beside an inconclusive call is a rough fit, not a confirmed value. % is scaled to controls: 0 for no effect and ±100 for the full control effect; potency is read from the fitted curve at half-maximal effect.",
  "data": [
    {"assay": "qHTS assay for MDR1-selective chemotherapeutics: Primary screen using the drug-selected MDR subline cells KB-V1; also: nearly all actives have a fitted effect of over 60% in size", "conditions": "KB-V1 MDR cells viability, CellTiter-Glo, 72 h; activity change, negative = cytotoxicity: at 46.1 µM (top of the series)", "method_in_brief": "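qHTS viability screen in drug-selected KB-V1 MDR cells: 72 h compound treatment at 37 degrees C, ATP luminescence end point.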", "values": [
      {"smiles": "Cc1noc(C)c1NC(=O)N(C)C[C@H]1Oc2ccc(NS(=O)(=O)c3c(C)noc3C)cc2C(=O)N([C@H](C)CO)C[C@@H]1C", "Potency": "inconclusive: 23.1 µM [rising, partial curve, poor fit]"},
      {"smiles": "O=C(NCc1cccs1)c1nc2c(nnn2Cc2ccccc2Cl)c(=O)[nH]1", "Potency": "active: 8.2 µM"},
      {"smiles": "Cc1cc(C)n2nc(C(=O)Nc3cccc(S(=O)(=O)N4CCOCC4)c3)nc2n1", "Potency": "inconclusive: 16.4 µM [rising, single point]"},
      {"smiles": "Cc1cnc2ccccc2c1C", "activity change, negative = cytotoxicity": "inactive: 5.22%"},
      {"smiles": "CN(CC(=O)NCc1ccc(F)cc1)S(=O)(=O)c1ccc2c(c1)n(C)c(=O)c(=O)n2C", "Potency": "inconclusive: 10.3 µM [rising, partial curve, poor fit]"},
      {"smiles": "CCOc1ccc(S(=O)(=O)Nc2cccc(OC)c2)cc1", "Potency": "inconclusive: 23.1 µM [cytotoxic, single point]"},
      {"smiles": "CCOc1ccc(-c2noc(CCCC(=O)NC3CCCCC3)n2)cc1OC", "Potency": "inconclusive: 5.8 µM [cytotoxic, partial curve]"},
      {"smiles": "O=c1[nH]c2ccc(S(=O)(=O)Nc3ccc(Br)cc3)cc2[nH]1", "Potency": "inconclusive: 29.1 µM [rising, single point]"},
      {"smiles": "CCCCCCCN1CCC(=O)N([C@H](CO)Cc2ccccc2)CC1", "Potency": "inconclusive: 13 µM [cytotoxic, partial curve] and inconclusive: 18.4 µM [cytotoxic, partial curve]"},
      {"smiles": "O=C(COc1ccccc1Cl)NCCCNC(=O)c1ccco1", "Potency": "inconclusive: 3.66 µM [cytotoxic, partial curve, poor fit]"},
      {"smiles": "Cc1c(/C=N\\NC(=O)c2csc3ccccc23)cnn1C", "Potency": "inconclusive: 11.6 µM [cytotoxic, partial curve]"},
      {"smiles": "COc1cc(/C=N/Nc2nc(Nc3ccc(C)cc3)nc(-n3nc(C)cc3C)n2)cc(OC)c1OC", "Potency": "inconclusive: 2.06 µM [cytotoxic, full curve, poor fit]"},
      {"smiles": "CC(=O)N/C(=C\\c1ccccc1)C(=O)OCc1ccc(F)cc1", "Potency": "inconclusive: 25.9 µM [cytotoxic, partial curve, poor fit]"},
      {"smiles": "Cn1c(N2CCCC2)nc2c1c(=O)n(Cc1ccc(Cl)cc1)c(=O)n2C", "Potency": "inconclusive: 20.6 µM [cytotoxic, partial curve, poor fit]"},
      {"smiles": "N#Cc1c(OCC(=O)c2ccccc2)nc2c(c1-c1ccco1)CCc1ccccc1-2", "Potency": "active: 8.2 µM"},
      {"smiles": "Cc1c(C(=O)NCc2ccc3c(c2)OCO3)sc(=O)n1Cc1ccc(-c2ccccc2)cc1", "Potency": "inconclusive: 20.6 µM [cytotoxic, partial curve, poor fit]"},
      {"smiles": "CCCC(=O)N1CCN(c2ccc(NC(=S)NC(=O)CC)cc2)CC1", "Potency": "active: 23.1 µM"},
      {"smiles": "COc1ccccc1C(=O)Nc1ccc(OCC(=O)N2CCCCC2)cc1", "Potency": "inconclusive: 20.6 µM [cytotoxic, single point]"},
      {"smiles": "CC(C)(Cc1nc2ccccc2[nH]1)c1nc2ccccc2[nH]1", "Potency": "inconclusive: 29.1 µM [cytotoxic, single point]"},
      {"smiles": "C=CCN1C(=O)c2ccc(C(=O)NCCOc3ccccc3F)cc2C1=O", "activity change, negative = cytotoxicity": "inactive: 18.5%"},
      {"smiles": "COc1ccc(N2C(=O)CCC(C(=O)NCCCN3CCC(C)CC3)C2c2ccc(OC)c(OC)c2)cc1", "note": "(configuration not stated)", "Potency": "inconclusive: 18.4 µM [rising, single point]"},
      {"smiles": "Cc1ccccc1OCC(=O)N/N=C/c1cc2ccccc2nc1Cl", "Potency": "inconclusive: 14.6 µM [cytotoxic, partial curve]"},
      {"smiles": "C#CCOc1c(Cl)cc(/C=N/NC(N)=S)cc1OCC", "Potency": "inconclusive: 29.1 µM [cytotoxic, single point]"},
      {"smiles": "COc1ccc(N(C(C)=O)S(=O)(=O)c2cccc3cccnc23)cc1", "Potency": "inconclusive: 16.4 µM [cytotoxic, partial curve]"},
      {"smiles": "COc1ccc(C2C3=C(CCCC3=O)N(CC(=O)O)C3=C2C(=O)CCC3)cc1Cl", "Potency": "inconclusive: 29.1 µM [rising, single point]"},
      {"smiles": "COc1cccc(-c2cc(C(=O)Nc3cc(OC)c(OC)c(OC)c3)on2)c1", "Potency": "inconclusive: 16.4 µM [cytotoxic, single point]"},
      {"smiles": "CN(C)c1ccc(/C=C2\\C(Cl)=Cc3ccccc32)cc1", "activity change, negative = cytotoxicity": "inactive: 13.9%"},
      {"smiles": "CCCN(C(=O)CSc1cc(-c2ccccc2)c2ccc(OC)cc2n1)C1CCS(=O)(=O)C1", "note": "(configuration not stated)", "Potency": "inconclusive: 20.6 µM [cytotoxic, partial curve, poor fit]"},
      {"smiles": "O=[N+]([O-])c1ccc(-c2cnc3ccccc3n2)cc1", "activity change, negative = cytotoxicity": "inactive: -7.64%"},
      {"smiles": "S=c1[nH]nc(CCc2ccccc2)n1Cc1ccccc1", "activity change, negative = cytotoxicity": "inactive: -3.11%"},
      {"smiles": "COc1nc(-c2ccccc2)ccc1-c1noc(C)n1", "Potency": "inconclusive: 23.1 µM [cytotoxic, single point]"},
      {"smiles": "CC(C)(C)OC(=O)N1CCCN(C(c2ccnc3ccccc23)c2nnnn2-c2ccc3c(c2)OCCO3)CC1", "note": "(configuration not stated)", "activity change, negative = cytotoxicity": "inactive: 0%"},
      {"smiles": "CCOc1cccc(C(=O)Nc2ccc(S(=O)(=O)Nc3cc(C)on3)cc2)c1", "activity change, negative = cytotoxicity": "inactive: 0.837%"},
      {"smiles": "Cc1cc(N)n2nc(-c3ccccc3)c(-c3ccccc3)c2n1", "activity change, negative = cytotoxicity": "inactive: -0.0021%"},
      {"smiles": "CC(C)CC(=O)Nc1c2c(nn1-c1ccc(F)cc1)CS(=O)(=O)C2", "activity change, negative = cytotoxicity": "inactive: 15.4%"},
      {"smiles": "Cc1[nH]c(=O)[nH]c(=O)c1S(=O)(=O)N1CCN(c2ccccc2)CC1", "Potency": "inconclusive: 25.9 µM [rising, single point]"},
      {"smiles": "N/C(=N\\S(=O)(=O)c1cc(C(F)(F)F)cc(C(F)(F)F)c1)c1ccc(Cl)cc1", "Potency": "inconclusive: 29.1 µM [cytotoxic, single point]"},
      {"smiles": "COc1ccc(C(=O)CC2(O)C(=O)N(Cc3ccccc3Cl)c3ccccc32)cc1", "note": "(configuration not stated)", "Potency": "active: 18.4 µM"},
      {"smiles": "Nc1ccc(C(=O)N2CCN(S(=O)(=O)/C=C/c3ccccc3)CC2)cc1[N+](=O)[O-]", "Potency": "inconclusive: 11.6 µM [cytotoxic, partial curve]"},
      {"smiles": "CCn1cc(C(=O)NCc2cccnc2)c(=O)c2cc(F)c(N3CCN(C(=O)c4ccco4)CC3)cc21", "activity change, negative = cytotoxicity": "inactive: -26%"},
      {"smiles": "O=C(N/N=C/c1ccc(O)cc1)c1cc[n+](Cc2ccccc2)cc1", "Potency": "inconclusive: 29.1 µM [rising, partial curve, poor fit]"},
      {"smiles": "Cc1ccc(C)c(S(=O)(=O)N2CCCC2CNC(=O)C(=O)Nc2ccccc2)c1", "note": "(configuration not stated)", "activity change, negative = cytotoxicity": "inactive: -29.2%"}
    ]}
  ]
}
